# According to the supplement of paper PMC11732987, “Enantioselective OTUD7B fragment discovery through chemoproteomics screening and high-throughput optimisation” (Communications Chemistry, 2025):
# By UniProt entry, the sequences of proteins in these tests, tags left out. Where a name states a change or a piece, a line headed by the entry shows the natural chain unless it says otherwise. Residues count along the entry.
# UniProt Q8N653: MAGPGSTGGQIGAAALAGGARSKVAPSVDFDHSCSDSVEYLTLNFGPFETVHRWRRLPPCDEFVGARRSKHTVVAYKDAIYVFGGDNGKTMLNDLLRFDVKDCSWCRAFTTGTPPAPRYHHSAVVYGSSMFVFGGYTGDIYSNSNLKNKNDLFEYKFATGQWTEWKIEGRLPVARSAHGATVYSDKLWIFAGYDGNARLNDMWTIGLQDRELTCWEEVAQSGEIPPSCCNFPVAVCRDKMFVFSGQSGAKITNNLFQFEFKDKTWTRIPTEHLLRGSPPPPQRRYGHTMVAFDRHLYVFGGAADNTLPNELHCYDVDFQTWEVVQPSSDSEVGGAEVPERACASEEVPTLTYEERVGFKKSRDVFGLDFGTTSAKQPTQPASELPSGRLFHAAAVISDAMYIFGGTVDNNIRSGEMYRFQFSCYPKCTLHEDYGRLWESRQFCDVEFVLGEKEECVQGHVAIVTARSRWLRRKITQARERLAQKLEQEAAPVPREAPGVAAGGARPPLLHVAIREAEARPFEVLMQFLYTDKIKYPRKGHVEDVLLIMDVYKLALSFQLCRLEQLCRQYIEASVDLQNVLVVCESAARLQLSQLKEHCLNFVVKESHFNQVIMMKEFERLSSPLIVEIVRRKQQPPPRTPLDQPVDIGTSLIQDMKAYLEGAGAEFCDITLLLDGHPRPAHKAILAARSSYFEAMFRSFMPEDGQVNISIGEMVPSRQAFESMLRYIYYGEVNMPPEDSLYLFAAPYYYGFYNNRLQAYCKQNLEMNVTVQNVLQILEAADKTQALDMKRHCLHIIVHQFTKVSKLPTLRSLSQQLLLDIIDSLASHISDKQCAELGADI
# UniProt O94822: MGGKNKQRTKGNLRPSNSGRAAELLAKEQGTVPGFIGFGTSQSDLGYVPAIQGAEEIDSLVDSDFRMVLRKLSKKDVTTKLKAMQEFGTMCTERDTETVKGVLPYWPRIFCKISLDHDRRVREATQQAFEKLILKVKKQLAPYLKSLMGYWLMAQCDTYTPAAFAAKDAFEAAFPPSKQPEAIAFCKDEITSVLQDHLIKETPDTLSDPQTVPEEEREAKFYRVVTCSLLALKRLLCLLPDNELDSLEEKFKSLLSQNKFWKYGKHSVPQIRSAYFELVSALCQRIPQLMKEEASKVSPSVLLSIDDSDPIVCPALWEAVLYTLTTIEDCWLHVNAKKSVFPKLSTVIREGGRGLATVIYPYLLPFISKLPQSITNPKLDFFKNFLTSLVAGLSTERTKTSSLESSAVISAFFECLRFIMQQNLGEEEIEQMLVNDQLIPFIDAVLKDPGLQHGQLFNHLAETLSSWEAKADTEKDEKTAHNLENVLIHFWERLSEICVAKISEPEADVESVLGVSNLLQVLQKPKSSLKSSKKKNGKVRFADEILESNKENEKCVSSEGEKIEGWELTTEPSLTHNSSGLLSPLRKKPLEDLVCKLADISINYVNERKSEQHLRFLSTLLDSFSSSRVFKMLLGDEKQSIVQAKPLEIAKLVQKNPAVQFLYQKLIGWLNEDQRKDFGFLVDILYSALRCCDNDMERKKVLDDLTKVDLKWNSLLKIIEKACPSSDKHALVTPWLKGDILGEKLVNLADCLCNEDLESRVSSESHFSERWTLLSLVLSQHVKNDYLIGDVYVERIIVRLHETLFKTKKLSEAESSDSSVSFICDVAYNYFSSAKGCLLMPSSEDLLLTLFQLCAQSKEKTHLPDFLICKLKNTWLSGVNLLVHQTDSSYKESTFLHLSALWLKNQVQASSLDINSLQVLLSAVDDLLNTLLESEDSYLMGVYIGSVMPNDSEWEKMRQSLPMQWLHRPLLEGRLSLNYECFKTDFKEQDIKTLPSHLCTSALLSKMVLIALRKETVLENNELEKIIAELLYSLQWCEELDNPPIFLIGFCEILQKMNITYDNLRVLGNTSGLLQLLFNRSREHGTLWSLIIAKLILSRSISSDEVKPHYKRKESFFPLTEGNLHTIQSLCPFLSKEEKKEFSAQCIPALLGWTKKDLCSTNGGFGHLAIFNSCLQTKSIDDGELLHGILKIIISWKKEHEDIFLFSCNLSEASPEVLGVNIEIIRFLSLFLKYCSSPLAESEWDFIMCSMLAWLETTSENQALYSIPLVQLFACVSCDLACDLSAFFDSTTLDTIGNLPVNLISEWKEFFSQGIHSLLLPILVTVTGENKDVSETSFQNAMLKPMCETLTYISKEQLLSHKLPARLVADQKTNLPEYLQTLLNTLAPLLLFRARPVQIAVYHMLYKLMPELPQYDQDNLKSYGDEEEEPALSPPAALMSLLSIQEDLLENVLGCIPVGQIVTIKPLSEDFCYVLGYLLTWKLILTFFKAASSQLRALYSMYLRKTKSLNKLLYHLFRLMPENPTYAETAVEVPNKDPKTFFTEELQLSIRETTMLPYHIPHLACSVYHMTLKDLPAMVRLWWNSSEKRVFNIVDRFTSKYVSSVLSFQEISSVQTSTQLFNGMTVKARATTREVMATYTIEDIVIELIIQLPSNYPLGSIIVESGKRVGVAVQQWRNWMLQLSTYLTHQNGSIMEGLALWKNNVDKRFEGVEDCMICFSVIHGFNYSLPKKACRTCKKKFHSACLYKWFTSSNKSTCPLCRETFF
# UniProt Q14566: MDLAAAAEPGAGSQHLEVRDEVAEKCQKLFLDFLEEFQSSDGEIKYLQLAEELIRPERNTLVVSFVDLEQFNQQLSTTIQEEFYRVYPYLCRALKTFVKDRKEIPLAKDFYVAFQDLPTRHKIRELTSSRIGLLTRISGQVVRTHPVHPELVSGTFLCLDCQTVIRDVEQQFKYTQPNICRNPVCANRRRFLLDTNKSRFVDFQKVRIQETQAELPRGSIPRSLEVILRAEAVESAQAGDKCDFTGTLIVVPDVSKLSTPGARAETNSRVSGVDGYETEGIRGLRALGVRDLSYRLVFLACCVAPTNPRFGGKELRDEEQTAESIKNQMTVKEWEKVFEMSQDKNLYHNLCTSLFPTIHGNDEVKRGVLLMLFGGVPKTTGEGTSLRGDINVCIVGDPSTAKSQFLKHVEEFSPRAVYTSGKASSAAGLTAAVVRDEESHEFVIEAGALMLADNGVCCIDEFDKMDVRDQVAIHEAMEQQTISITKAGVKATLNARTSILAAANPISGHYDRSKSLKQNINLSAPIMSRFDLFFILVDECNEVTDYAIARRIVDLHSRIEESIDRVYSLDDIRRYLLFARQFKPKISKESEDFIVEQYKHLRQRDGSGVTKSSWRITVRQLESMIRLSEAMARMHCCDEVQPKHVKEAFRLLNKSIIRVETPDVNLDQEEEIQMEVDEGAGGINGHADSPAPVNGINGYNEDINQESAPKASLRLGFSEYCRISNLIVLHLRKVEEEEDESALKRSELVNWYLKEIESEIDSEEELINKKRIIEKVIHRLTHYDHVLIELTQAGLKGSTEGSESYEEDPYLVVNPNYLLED
# UniProt Q9Y6R4, 178-197: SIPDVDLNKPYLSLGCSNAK
# UniProt Q66K74: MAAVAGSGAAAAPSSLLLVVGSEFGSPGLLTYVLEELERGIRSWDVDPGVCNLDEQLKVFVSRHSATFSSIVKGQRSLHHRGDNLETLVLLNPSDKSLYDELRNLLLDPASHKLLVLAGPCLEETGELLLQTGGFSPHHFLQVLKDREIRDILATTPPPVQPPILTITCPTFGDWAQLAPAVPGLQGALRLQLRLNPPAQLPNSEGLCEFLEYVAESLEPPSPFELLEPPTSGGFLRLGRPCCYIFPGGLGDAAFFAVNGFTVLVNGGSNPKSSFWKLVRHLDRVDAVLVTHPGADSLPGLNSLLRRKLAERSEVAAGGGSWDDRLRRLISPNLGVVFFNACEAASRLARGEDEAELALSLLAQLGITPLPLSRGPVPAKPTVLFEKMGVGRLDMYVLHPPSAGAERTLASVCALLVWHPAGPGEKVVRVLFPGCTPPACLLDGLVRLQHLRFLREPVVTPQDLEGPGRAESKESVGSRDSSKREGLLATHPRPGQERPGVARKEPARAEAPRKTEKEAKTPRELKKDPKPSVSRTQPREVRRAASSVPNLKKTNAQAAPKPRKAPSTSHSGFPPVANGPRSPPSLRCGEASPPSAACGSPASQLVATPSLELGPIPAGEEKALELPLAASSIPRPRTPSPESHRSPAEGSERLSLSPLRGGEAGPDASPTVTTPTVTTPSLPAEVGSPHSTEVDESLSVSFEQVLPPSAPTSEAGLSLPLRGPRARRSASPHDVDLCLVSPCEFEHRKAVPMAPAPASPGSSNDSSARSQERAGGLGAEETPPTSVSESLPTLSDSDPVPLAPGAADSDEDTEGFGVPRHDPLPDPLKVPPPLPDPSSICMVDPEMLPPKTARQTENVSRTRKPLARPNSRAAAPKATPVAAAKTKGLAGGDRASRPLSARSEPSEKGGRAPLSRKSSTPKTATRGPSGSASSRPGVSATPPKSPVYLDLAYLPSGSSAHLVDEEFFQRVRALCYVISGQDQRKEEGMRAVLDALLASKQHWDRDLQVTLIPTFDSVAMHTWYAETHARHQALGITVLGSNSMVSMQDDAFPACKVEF
# UniProt Q9NXL9, 866-886: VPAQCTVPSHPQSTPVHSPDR
# UniProt O14733, 113-136: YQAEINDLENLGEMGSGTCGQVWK
# UniProt O60318: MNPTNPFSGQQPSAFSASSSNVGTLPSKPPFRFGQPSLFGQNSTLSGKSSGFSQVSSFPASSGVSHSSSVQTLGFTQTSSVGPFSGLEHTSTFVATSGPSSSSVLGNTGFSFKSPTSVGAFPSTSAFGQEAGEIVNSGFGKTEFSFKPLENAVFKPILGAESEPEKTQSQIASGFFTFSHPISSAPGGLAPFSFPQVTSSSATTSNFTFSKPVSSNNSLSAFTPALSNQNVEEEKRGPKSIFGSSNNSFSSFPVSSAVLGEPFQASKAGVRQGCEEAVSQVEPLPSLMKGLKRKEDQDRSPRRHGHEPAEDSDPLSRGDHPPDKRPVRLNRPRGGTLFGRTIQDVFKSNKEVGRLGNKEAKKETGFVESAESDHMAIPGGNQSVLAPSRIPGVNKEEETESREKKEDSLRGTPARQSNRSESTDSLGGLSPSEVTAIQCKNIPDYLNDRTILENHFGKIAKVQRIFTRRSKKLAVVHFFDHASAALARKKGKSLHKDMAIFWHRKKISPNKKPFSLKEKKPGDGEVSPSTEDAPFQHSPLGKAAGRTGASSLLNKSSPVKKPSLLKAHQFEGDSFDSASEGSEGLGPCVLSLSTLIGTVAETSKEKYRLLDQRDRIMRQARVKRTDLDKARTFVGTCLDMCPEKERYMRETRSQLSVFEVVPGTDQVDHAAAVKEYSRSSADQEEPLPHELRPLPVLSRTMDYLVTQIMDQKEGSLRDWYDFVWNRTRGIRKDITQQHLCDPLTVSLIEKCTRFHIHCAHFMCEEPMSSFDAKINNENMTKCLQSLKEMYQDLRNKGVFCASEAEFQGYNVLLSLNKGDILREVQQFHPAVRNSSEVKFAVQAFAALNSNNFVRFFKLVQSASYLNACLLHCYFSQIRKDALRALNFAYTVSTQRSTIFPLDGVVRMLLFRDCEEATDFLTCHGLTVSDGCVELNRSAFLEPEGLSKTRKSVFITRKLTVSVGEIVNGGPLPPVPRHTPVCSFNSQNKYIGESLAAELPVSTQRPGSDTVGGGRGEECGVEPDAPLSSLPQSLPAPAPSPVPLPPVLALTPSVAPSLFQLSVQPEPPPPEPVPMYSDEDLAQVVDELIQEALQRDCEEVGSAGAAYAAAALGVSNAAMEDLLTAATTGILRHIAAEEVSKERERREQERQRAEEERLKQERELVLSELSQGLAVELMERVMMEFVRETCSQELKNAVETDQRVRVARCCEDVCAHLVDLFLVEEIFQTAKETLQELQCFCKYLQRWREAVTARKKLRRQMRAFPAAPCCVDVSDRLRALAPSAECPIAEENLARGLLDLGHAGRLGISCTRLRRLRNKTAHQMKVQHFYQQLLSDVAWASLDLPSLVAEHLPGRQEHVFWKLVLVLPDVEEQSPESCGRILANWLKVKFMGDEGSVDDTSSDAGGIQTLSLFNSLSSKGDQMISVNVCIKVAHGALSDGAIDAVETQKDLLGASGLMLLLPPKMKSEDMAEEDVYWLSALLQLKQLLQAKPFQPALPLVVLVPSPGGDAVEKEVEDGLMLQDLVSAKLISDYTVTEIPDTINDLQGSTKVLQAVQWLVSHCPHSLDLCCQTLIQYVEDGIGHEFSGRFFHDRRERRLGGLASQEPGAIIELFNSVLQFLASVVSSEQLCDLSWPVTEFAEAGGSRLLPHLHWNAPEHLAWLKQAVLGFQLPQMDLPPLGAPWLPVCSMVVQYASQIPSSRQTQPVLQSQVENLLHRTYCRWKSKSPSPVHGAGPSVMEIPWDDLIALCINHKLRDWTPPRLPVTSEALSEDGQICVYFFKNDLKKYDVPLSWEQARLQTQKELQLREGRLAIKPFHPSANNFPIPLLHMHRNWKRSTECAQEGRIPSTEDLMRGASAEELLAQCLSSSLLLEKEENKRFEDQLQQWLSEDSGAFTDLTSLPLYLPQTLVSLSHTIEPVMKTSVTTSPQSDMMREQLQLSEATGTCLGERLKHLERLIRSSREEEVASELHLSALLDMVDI
# UniProt Q9UFC0, 248-272: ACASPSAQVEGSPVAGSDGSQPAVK
# UniProt Q9UDY8, 311-341: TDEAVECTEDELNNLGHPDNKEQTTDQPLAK
# The list shows a part of the results. The data scatter; read single values as rough.
# How the values were obtained:
# [1] = compound: ClCC(=O)N[C@@H]1CCCc2ccccc12; test: log2 mean competition ratio of IA-DTB cysteine labelling (DMSO/compound) (log2 ratio); higher = stronger cysteine engagement by compound; settings: treatment time: 4 h, cell line lysate: HEK293T
# Procedure: (§1)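 IA-DTB competitive cysteine chemoproteomics in HEK293T RIPA lysate. Lysates were treated with compound 29 or 30 at 50 or 200 µM for 4 h, then IA-DTB (500 µM, 1 h), trypsin-digested, NeutrAvidin-enriched and analysed by diaPASEF. Competition ratio = intensity DMSO / intensity compound (n=4 treated, n=64 DMSO); binding: mean log2 CR ≥ 1 and p ≤ 0.05 plus QC filters. Target is the cysteine site.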
# [2] = compound: ClCC(=O)N[C@H]1CCCc2ccccc12; test: as above; settings: treatment time: 4 h, cell line lysate: HEK293T
# Procedure: as §1
Target,log2 mean competition ratio ([1]; 50 µM),log2 mean competition ratio ([1]; 200 µM),log2 mean competition ratio ([2]; 50 µM),log2 mean competition ratio ([2]; 200 µM)
MCAT C361 (UniProt Q8IVS2),0.254,0.0518,0.083,0.0304
MAFF C68 (UniProt Q9ULX9),0.0518,0.158,0.0131,0.216
MAP4K3 C555 (UniProt Q8IVH8),0.0568,-0.115,-0.376,-0.172
LRRC40 C54 (UniProt Q9H9A6),0.114,0.157,0.346,0.308
LZTR1 C427 (UniProt Q8N653),0.175,-0.282,-0.0316,-0.134
MCMBP C200 (UniProt Q9BTE3),-0.156,0.0852,0.36,0.139
MARVELD2 C395 (UniProt Q8N4S9),0.0139,0.139,-0.153,0.0391
LSM14B C80 (UniProt Q9BX40),-0.188,-0.072,-0.334,-0.03
MBD1 C525 (UniProt Q9UIS9),-0.0212,0.0558,0.0117,0.184
LTN1 C869 (UniProt O94822),-0.0267,0.208,-0.335,0.104
MCM4 C162 (UniProt P33991),0.453,0.545,0.539,0.599
MAPK14 C162 (UniProt Q16539),-0.202,-0.106,-0.124,-0.126
MACF1 C5131,0.199,-0.068,0.636,-0.245
"MCTS2P C14, A0A3B3IRV3",0.157,-0.273,-0.7,0.072
MCM6 C393 (UniProt Q14566),-0.312,-0.28,-0.0257,-0.137
MAD1L1 C568 (UniProt Q9Y6D9),-0.0551,0.848,0.293,0.325
MAZ C371 (UniProt P56270),-0.239,0.211,-0.14,0.0256
MAP4 C535,-0.28,-0.11,-0.238,-0.0136
MAP3K7 C51 (UniProt O43318),-0.277,-0.134,-0.0618,-0.154
MAP3K4 C1484 (UniProt Q9Y6R4),-0.0031,-0.183,0.224,-0.103
MACF1 C4206,0.0483,-0.363,-0.0497,-0.28
MBD4 C324 (UniProt O95243),0.0715,-0.0908,-0.123,0.0878
MAP1S C975 (UniProt Q66K74),-0.209,-0.0352,0.176,-0.0307
LRRTM4 C339,-0.0288,0.128,0.237,0.347
MAP3K20 C285 (UniProt Q9NYL2),-0.359,0.0185,-0.726,0.00177

Target,log2 mean competition ratio ([1]; 50 µM),log2 mean competition ratio ([1]; 200 µM),log2 mean competition ratio ([2]; 50 µM),log2 mean competition ratio ([2]; 200 µM)
MAP7D2 C278,0.183,0.39,0.0542,0.0838
LYST C2168 (UniProt Q99698),0.235,-0.125,-0.207,0.433
MALSU1 C110 (UniProt Q96EH3),-0.255,-0.353,-0.103,-0.13
LUC7L C59 (UniProt Q9NQ29),-0.164,0.053,-0.0251,0.096
LRRC59 C48 (UniProt Q96AG4),-0.031,0.024,0.0946,0.23
LYPLAL1 C12 (UniProt Q5VWZ2),-0.0187,-0.215,0.116,-0.212
MCM9 C870 (UniProt Q9NXL9),0.369,-0.09,0.00356,-0.406
MACF1 C4388,-0.149,-0.114,-0.0189,-0.0739
MCM3 C134 (UniProt P25205),0.426,-0.42,0.538,-0.459
MAP3K21 C859,-0.143,0.841,-0.205,0.364
MAP3K20 C150 (UniProt Q9NYL2),0.0142,0.0982,-0.283,-0.107
LRRC1 C104,0.222,0.029,0.0325,0.218
LZTS2 C74 (UniProt Q9BRK4),0.452,0.0316,0.802,0.0624
LYRM7 C97 (UniProt Q5U5X0),-0.313,-0.0624,-0.134,0.0476
LYAR C51 (UniProt Q9NX58),-0.166,0.017,-0.15,0.0037
LRRC41 C123 (UniProt Q15345),0.265,0.647,0.144,0.484
MCM5 C249 (UniProt P33992),-0.038,0.401,-0.397,0.29
MAP2K3 C227 (UniProt P46734),0.485,0.326,0.051,0.248
LRRC41 C520 (UniProt Q15345),0.101,0.309,0.0531,0.322
LRRC57 C82 (UniProt Q8N9N7),-0.199,-0.151,-0.608,-0.0686
MARS2 C114 (UniProt Q96GW9),-0.389,-0.00166,0.202,-0.293
MAST3 C541 (UniProt O60307),-0.0856,0.206,-0.0287,0.369
MCC C174 (UniProt P23508),-0.114,0.264,-0.312,0.271
MACF1 C1522,0.285,-0.158,-0.0273,-0.269
MARCHF5 C33 (UniProt Q9NX47),-0.155,-0.0396,0.204,-0.26

# Single records, from the list above. Order of values: log2 mean competition ratio ([1]; 50 µM) | log2 mean competition ratio ([1]; 200 µM) | log2 mean competition ratio ([2]; 50 µM) | log2 mean competition ratio ([2]; 200 µM)
# MACF1 C1522 as listed: 0.285 | -0.158 | -0.0273 | -0.269
# MALSU1 C110 (UniProt Q96EH3) as listed: -0.255 | -0.353 | -0.103 | -0.13
# MCM9 C870 (UniProt Q9NXL9) as listed: 0.369 | -0.09 | 0.00356 | -0.406
# LYAR C51 (UniProt Q9NX58) as listed: -0.166 | 0.017 | -0.15 | 0.0037

# The list continues.

Target,log2 mean competition ratio ([1]; 50 µM),log2 mean competition ratio ([1]; 200 µM),log2 mean competition ratio ([2]; 50 µM),log2 mean competition ratio ([2]; 200 µM)
MAT2B C297 (UniProt Q9NZL9),-0.0228,-0.015,0.0793,0.0889
MAP2K7 C280 (UniProt O14733),0.353,0.242,0.304,0.192
MAML1 C957 (UniProt Q92585),0.375,-0.0151,-0.291,0.189
MARF1 C654 (UniProt Q9Y4F3),-0.336,0.0908,0.0118,0.263
MCM3AP C1309 (UniProt O60318),-0.0179,0.412,0.286,0.39
MARK3 C46 (UniProt P27448),-0.0725,0.245,-0.669,0.0813
MAPKAPK2 C98 (UniProt P49137),-0.127,-0.067,0.518,-0.119
LYPLA2 C171 (UniProt O95372),-0.328,0.258,-0.421,0.173
MAP3K21 C281,0.252,-0.129,0.142,0.101
M6PR C145 (UniProt P20645),0.0394,0.341,0.421,0.226
MACF1 C5346,-0.00108,0.345,-0.475,0.0868
MACF1 C2895,-0.0987,0.364,-0.206,0.0591
MCM3 C407 (UniProt P25205),-0.159,-0.0455,-0.263,-0.0375
LRWD1 C249 (UniProt Q9UFC0),-0.0567,0.23,-0.118,-0.0983
LZTS2 C307 (UniProt Q9BRK4),-0.0442,-0.0831,0.127,0.176
MARF1 C539 (UniProt Q9Y4F3),-0.000158,0.188,-0.235,0.269
LRRC8D C218 (UniProt Q7L1W4),0.13,-0.0456,-0.345,-0.0839
LRRC47 C367 (UniProt Q8N1G4),-0.172,-0.102,0.174,-0.0195
MCRS1 C84 (UniProt Q96EZ8),0.0582,-0.109,0.0137,-0.0333
MAP7D1 C373 (UniProt Q3KQU3),0.15,0.0158,0.312,0.0951
MAP1A C1086 (UniProt P78559),-0.00329,-0.447,0.0946,-0.292
MCM8 C548,-0.0394,-0.121,0.203,0.0506
MAP2K7 C131 (UniProt O14733),0.0266,-0.0339,0.113,-0.155
LUC7L3 C35 (UniProt O95232),-0.105,0.0981,0.00416,0.0269
M6PR C132 (UniProt P20645),-0.077,0.624,-0.145,0.264

Target,log2 mean competition ratio ([1]; 50 µM),log2 mean competition ratio ([1]; 200 µM),log2 mean competition ratio ([2]; 50 µM),log2 mean competition ratio ([2]; 200 µM)
MAP7D3 C494 (UniProt Q8IWC1),0.149,0.0699,0.201,0.133
MCMBP C287 (UniProt Q9BTE3),-0.13,-0.197,0.291,-0.185
MBNL1 C185,-0.149,0.478,-0.0139,0.409
MARK1 C387 (UniProt Q9P0L2),0.155,0.24,-0.316,0.132
MAP3K21 C369,-0.231,-0.347,-0.405,-0.176
LRRC1 C432,-0.0377,0.545,-0.000433,0.497
MCM3AP C1945 (UniProt O60318),0.0594,0.236,0.412,0.285
LTN1 C498 (UniProt O94822),-0.202,-0.3,0.655,-0.133
MBNL3 C180,-0.188,0.323,0.0322,0.478
MAP1A C912 (UniProt P78559),-0.316,0.125,-0.543,0.0922
LTN1 C595 (UniProt O94822),-0.189,0.235,-0.236,0.107
MCM4 C328 (UniProt P33991),-0.168,-0.215,0.285,-0.0359
MAP3K4 C61 (UniProt Q9Y6R4),-0.278,0.359,-0.117,0.77
MALT1 C317 (UniProt Q9UDY8),-0.469,0.386,0.311,-0.325
MCTS1 C14 (UniProt Q9ULC4),-0.185,-0.13,-0.451,-0.118
MCM3AP C1189 (UniProt O60318),-0.219,0.325,0.0563,0.13
MAP3K4 C193 (UniProt Q9Y6R4),0.349,0.51,-0.365,0.0391
MAP2K7 C260 (UniProt O14733),-0.0119,0.315,-0.475,0.177
LTV1 C309 (UniProt Q96GA3),-0.123,-0.0409,-0.257,-0.216
MAP4K3 C509 (UniProt Q8IVH8),0.0544,0.0401,-0.157,0.209
LZTR1 C342 (UniProt Q8N653),-0.16,-0.135,0.142,-0.149
MAP2K3 C29 (UniProt P46734),0.115,-0.0806,0.0777,-0.34
LRRC42 C350 (UniProt Q9Y546),0.253,0.14,-0.0614,0.12
